Results deposited as PubChem BioAssay AID1259405 (NCATS, 2018)

Purpose: 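Silenced genes that increase secreted GFP made by CHO cells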 (primary screen)
Cell system: Chinese hamster CHO-K1 ovary cells with stable secreted eGFP expression
Reagents: single siRNA against mouse genes, 0.8 pmol siRNA per well (2 µl of 400 nM stock)
Timing: 3 days
Measured: 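Per-well intracellular GFP measured by laser scanning cytometry, plus viability from ATP luminescence, each relative to plate median of non-targeting control wells, in %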
Scale: GFP, % of control: higher = more GFP per well, higher productivity; viability (ATP), % of control: higher = more viable cells (more ATP)
Hit rule: 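a knock-down is called active if GFP reaches 120% or more of non-targeting control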
Shown is one part, drawn at random, of about 50,000 deposited reagents. Of all reagents, about 4,000 (8%) got an active call. 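Mouse siRNA library applied to hamster cells; one well for each siRNA.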

Target gene	PubChem SID	GFP, % of control	viability (ATP), % of control	call
Fut2b (GeneID 56546)	SID363545233	60.9	42.9	inactive
Fut2b (GeneID 56546)	SID363548746	65.4	55.4	inactive
Fut2b (GeneID 56546)	SID363562552	101	56	inactive
Psme4 (GeneID 103554)	SID363555068	99.4	120	inactive
Psme4 (GeneID 103554)	SID363568515	60.7	72.2	inactive
Psme4 (GeneID 103554)	SID363586574	101	115	inactive
Tgoln2 (GeneID 22135)	SID363553776	81.3	63.5	inactive
Tgoln2 (GeneID 22135)	SID363561733	120	84.8	active
Tgoln2 (GeneID 22135)	SID363565471	77.8	63.4	inactive
Ppnr (GeneID 26930)	SID363554545	79.4	96.2	inactive
Ppnr (GeneID 26930)	SID363567992	79.4	52.2	inactive
Ppnr (GeneID 26930)	SID363586051	82.6	107	inactive
Immt (GeneID 76614)	SID363540387	60.3	72.7	inactive
Immt (GeneID 76614)	SID363542139	111	92.2	inactive
Immt (GeneID 76614)	SID363567055	115	105	inactive
Gstm1 (GeneID 14862)	SID363570468	148	84.8	active
Gstm1 (GeneID 14862)	SID363579268	196	142	active
Gstm1 (GeneID 14862)	SID363583140	123	96.8	active
Galnt3 (GeneID 14425)	SID363570672	52.4	86.2	inactive
Galnt3 (GeneID 14425)	SID363579472	80.5	138	inactive
Galnt3 (GeneID 14425)	SID363583344	90.1	106	inactive
Ascl2 (GeneID 17173)	SID363573524	66.1	73.5	inactive
Ascl2 (GeneID 17173)	SID363588763	73.2	71.9	inactive
Itm2c (GeneID 64294)	SID363540430	50.6	63.4	inactive
Itm2c (GeneID 64294)	SID363542182	84.7	71.7	inactive
Itm2c (GeneID 64294)	SID363567098	51.9	43.7	inactive
Csnk2a1 (GeneID 12995)	SID363570907	62.6	68.3	inactive
Or1j15 (GeneID 258621)	SID363554170	90.6	76.7	inactive
Or1j15 (GeneID 258621)	SID363567617	127	58.3	active
Or1j15 (GeneID 258621)	SID363584974	52.6	63	inactive
Rplp0 (GeneID 11837)	SID363546787	81.8	53.3	inactive
Rplp0 (GeneID 11837)	SID363548543	79.8	88	inactive
Rplp0 (GeneID 11837)	SID363560721	67	50.8	inactive
Prss22 (GeneID 70835)	SID363574392	102	85	inactive
Prss22 (GeneID 70835)	SID363575448	108	83	inactive
Prss22 (GeneID 70835)	SID363580024	83	74.7	inactive
Evpl (GeneID 14027)	SID363572428	63.5	109	inactive
Evpl (GeneID 14027)	SID363574188	57.3	51.6	inactive
Pcp2 (GeneID 18545)	SID363545584	72.9	43.7	inactive
Pcp2 (GeneID 18545)	SID363549097	68.9	53.2	inactive
Pcp2 (GeneID 18545)	SID363562903	90.1	86.2	inactive
Rae1 (GeneID 66679)	SID363554886	84.6	103	inactive
Rae1 (GeneID 66679)	SID363568333	78.4	83	inactive
Rae1 (GeneID 66679)	SID363586392	47	51.2	inactive
Tmem239 (GeneID 66766)	SID363552156	61.6	82.5	inactive
Tmem239 (GeneID 66766)	SID363585292	114	90.1	inactive
Tmem239 (GeneID 66766)	SID363585643	75	105	inactive
B3galnt2 (GeneID 97884)	SID363570496	74.8	76.7	inactive
B3galnt2 (GeneID 97884)	SID363579296	89	112	inactive
B3galnt2 (GeneID 97884)	SID363583168	94.6	88.5	inactive
Sart1 (GeneID 20227)	SID363541007	60.9	45	inactive
Sart1 (GeneID 20227)	SID363555634	65.5	69.6	inactive
Sart1 (GeneID 20227)	SID363565923	74	74.2	inactive
Obscn (GeneID 380698)	SID363547259	81.3	71.4	inactive
Obscn (GeneID 380698)	SID363558028	63.9	53.2	inactive
Obscn (GeneID 380698)	SID363559786	85.6	101	inactive
Kctd14 (GeneID 233529)	SID363584448	68.8	67.1	inactive
Kctd14 (GeneID 233529)	SID363589478	172	113	active

6 entries from above, limited to “viability (ATP), % of control”:
Prss22 (GeneID 70835) [SID363574392]: 85
Prss22 (GeneID 70835) [SID363575448]: 83
Prss22 (GeneID 70835) [SID363580024]: 74.7
Evpl (GeneID 14027) [SID363572428]: 109
Evpl (GeneID 14027) [SID363574188]: 51.6
Pcp2 (GeneID 18545) [SID363545584]: 43.7
